# Data published in article PMC8528428.
# The chains behind the UniProt entries cited, without tags or fusion partners. Residues count along the entry.
# UniProt Q9H1K1, residues 35-167: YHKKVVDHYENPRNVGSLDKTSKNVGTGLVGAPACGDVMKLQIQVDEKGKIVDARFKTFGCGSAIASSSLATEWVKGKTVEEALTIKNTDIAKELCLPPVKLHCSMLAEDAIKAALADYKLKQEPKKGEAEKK
# UniProt P09211: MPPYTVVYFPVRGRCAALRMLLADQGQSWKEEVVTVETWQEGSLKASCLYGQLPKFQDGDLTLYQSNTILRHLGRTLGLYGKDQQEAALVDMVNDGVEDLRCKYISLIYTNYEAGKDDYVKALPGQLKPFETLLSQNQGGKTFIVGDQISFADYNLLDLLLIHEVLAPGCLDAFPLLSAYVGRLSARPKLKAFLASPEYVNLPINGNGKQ
# Results are given in words; binding and its absence hold for the method and conditions named. In cells and extracts the contact can be indirect. Some binding calls cover weakened binding; strength is not graded here.
# Key:
# [1] = biological target: ISCU (iron-sulfur biogenesis / scaffolding protein) (human (endogenous in primary human PAECs)) (UniProt Q9H1K1); test: co-IP; PAEC lysate (cells treated with siGSTP1 or scrambled siRNA; also vehicle or BRD2889 in normoxia or hypoxia), immunoprecipitation with α-ISCU or IgG control, immunoblot for total ISCU, GSTP1 and glutathionylated ISCU
# [2] = biological target: glutathione S-transferase pi 1 (GSTP1) (human (endogenous in primary human PAECs)) (UniProt P09211); test: co-IP; PAEC lysate (cells treated with siGSTP1 or scrambled siRNA), immunoprecipitation with α-GSTP1 or IgG control, immunoblot for ISCU and GSTP1
substance,measurement,setting,value
glutathione S-transferase pi 1 (GSTP1) (from UniProt P09211 1-210) (enzyme),binding,[1],binds
ISCU (iron-sulfur biogenesis / scaffolding protein) (from UniProt Q9H1K1 35-167),binding,[2],binds
